In PubChem BioAssay AID192 (DTP/NCI, 2004):
The list is a part of this screen's results and no random one: it is rich in T/C values a quarter to a half above the control, in often repeated tests (any T/C) and in doses without a T/C. Other doses and runs of a compound stand elsewhere. T/C: endpoint of the treated group in % of that of the vehicle group. Some entries give survivors of the animals treated and no T/C: the source files T/C as zero there, which appears to mark a toxic dose or a test without result, not a measured value. Some doses without a T/C left all or most animals alive at the check, yet need not have been tolerated: the source hardly ever lists a survival T/C far under the control, and the zero likely stands for such cases as well. Counts of survivors are from the toxicity check (mostly the fifth day) where no day follows; animals may have died later. Schedule codes are those of the source, taken here to give the interval after Q, in days (D) or hours (H), and the number of doses after X. Some entries hold several experiments; the results are listed from low to high. Where survival is the endpoint, this PubChem deposit counts one and a half times the control or more as active, and values a quarter to a half above the control carry no call in these data; other NCI protocols may use other cut-offs.

Tested on: BDF1 mice, B16 melanoma ip, median survival T/C
Assay: NCI In Vivo Anticancer Drug Screen. Data for tumor model B16 Melanoma (intraperitoneal) in B6D2F1 (BDF1) mice
Conditions: T/C endpoint: median survival time, higher T/C = longer survival
How it was run: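 Mice with transplantable tumors; drug vs vehicle groups; endpoint survival or tumor size; value = T/C.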

[1] = dose: 25.0 mg/kg/injection, schedule: Q01DX009 (ip), vehicle: saline with Tween-80
[2] = dose: 25.0 mg/kg/injection, schedule: Q01DX009 (ip), vehicle: Klucel (hydroxypropylcellulose) (HPC)
[3] = dose: 50.0 mg/kg/injection, schedule: Q01DX009 (ip), vehicle: Klucel (hydroxypropylcellulose) (HPC)
[4] = dose: 100.0 mg/kg/injection, schedule: Q01DX009 (ip), vehicle: Klucel (hydroxypropylcellulose) (HPC)
[5] = dose: 200.0 mg/kg/injection, schedule: Q01DX009 (ip), vehicle: Klucel (hydroxypropylcellulose) (HPC)
[6] = dose: 400.0 mg/kg/injection, schedule: Q01DX009 (ip), vehicle: Klucel (hydroxypropylcellulose) (HPC)
[7] = dose: 12.5 mg/kg/injection, schedule: Q01DX009 (ip), vehicle: saline with Tween-80

With `CN(C)N=Nc1ccc(S(=O)(=O)Nc2ncccn2)cc1` the T/C [1] was 141 % of control, the T/C (dose: 50.0 mg/kg/injection, schedule: Q01DX009 (ip), vehicle: saline with Tween-80, evaluated on day 45) was 138 % of control and the T/C (dose: 50.0 mg/kg/injection, schedule: Q01DX009 (ip), vehicle: saline with Tween-80, evaluated on day 60) was 116, 119, 135 % of control. For the same compound, the T/C (dose: 75.0 mg/kg/injection, schedule: Q01DX009 (ip), vehicle: saline with Tween-80) was 137 % of control, the T/C (dose: 100.0 mg/kg/injection, schedule: Q01DX009 (ip), vehicle: saline with Tween-80, evaluated on day 45) was 141 % of control and the T/C (dose: 100.0 mg/kg/injection, schedule: Q01DX009 (ip), vehicle: saline with Tween-80, evaluated on day 60) was 139 % of control.

With `c1ccc2c(c1)C1=NCCN1c1ccccc1-2` the survivor count (dose: 40.0 mg/kg/injection, schedule: Q01DX009 (ip), vehicle: saline with Tween-80) was 9 of 10 and the survivor count (dose: 60.0 mg/kg/injection, schedule: Q01DX009 (ip), vehicle: saline with Tween-80) was 7 of 10.

With `CC(Br)C1(c2cccc([N+](=O)[O-])c2)OCCO1` (stereo not given) the survivor count (dose: 100.0 mg/kg/injection, schedule: Q04DX003 (ip), vehicle: Klucel (hydroxypropylcellulose) (HPC)) was 5 of 10 and 7 of 10, the survivor count (dose: 200.0 mg/kg/injection, schedule: Q04DX003 (ip), vehicle: Klucel (hydroxypropylcellulose) (HPC)) was 7 of 10 and the survivor count (dose: 400.0 mg/kg/injection, schedule: Q04DX003 (ip), vehicle: Klucel (hydroxypropylcellulose) (HPC)) was 0 of 10.

For `CCOC(=O)C1(C)C=C(Nc2ccc(OC)cc2)C(=O)N1c1ccc(OC)cc1` (stereo not given), the survivor count [2] was 10 of 10, the survivor count [3] was 9 of 10 and the survivor count [4] was 9 of 10. The survivor count [5] was 7 of 10 and the survivor count [6] was 2 of 10.

With `Nc1ncnc2nc[nH]c12` the survivor count (dose: 32.0 mg/kg/injection, schedule: Q01DX009 (ip), vehicle: saline with Tween-80) was 7 of 10, the survivor count (dose: 128.0 mg/kg/injection, schedule: Q01DX009 (ip), vehicle: saline with Tween-80) was 8 of 10 and the survivor count (dose: 256.0 mg/kg/injection, schedule: Q01DX009 (ip), vehicle: Klucel (hydroxypropylcellulose) (HPC)) was 7 of 10. The survivor count (dose: 256.0 mg/kg/injection, schedule: Q01DX009 (ip), vehicle: saline with Tween-80) was 7 of 10, the survivor count (dose: 512.0 mg/kg/injection, schedule: Q01DX009 (ip), vehicle: Klucel (hydroxypropylcellulose) (HPC)) was 0 of 10 and the survivor count (dose: 512.0 mg/kg/injection, schedule: Q01DX009 (ip), vehicle: saline with Tween-80) was 5 of 10.

For `CCC(=O)c1ccc2c(c1)N(CCCN1CCN(CCO)CC1)c1ccccc1S2`, the survivor count (dose: 0.12 mg/kg/injection, schedule: Q01DX009 (ip), vehicle: saline) was 9 of 10, the survivor count (dose: 8.0 mg/kg/injection, schedule: Q01DX009 (ip), vehicle: saline) was 4 of 10 and the survivor count (dose: 16.0 mg/kg/injection, schedule: Q01DX009 (ip), vehicle: saline) was 5 of 10. The survivor count (dose: 32.0 mg/kg/injection, schedule: Q01DX009 (ip), vehicle: saline) was 4 of 10 and the survivor count (dose: 64.0 mg/kg/injection, schedule: Q01DX009 (ip), vehicle: saline) was 0 of 10.

For `CCC[CH2][Sn](=[S])[CH2]CCC`, the survivor count (dose: 3.12 mg/kg/injection, schedule: Q01DX009 (ip), vehicle: saline) was 10 of 10, the survivor count (dose: 12.5 mg/kg/injection, schedule: Q01DX009 (ip), vehicle: other) was 3 of 10 and the survivor count [7] was 10 of 10 and 6 of 6. The survivor count (dose: 12.5 mg/kg/injection, schedule: Q04DX003 (ip), vehicle: other) was 12 of 12, the survivor count (dose: 25.0 mg/kg/injection, schedule: Q01DX009 (ip), vehicle: other) was 1 of 10 and the survivor count [1] was 0 of 6 and 3 of 10. The survivor count (dose: 25.0 mg/kg/injection, schedule: Q04DX003 (ip), vehicle: other) was 12 of 12, the survivor count (dose: 50.0 mg/kg/injection, schedule: Q01DX009 (ip), vehicle: other) was 0 of 10 and the survivor count (dose: 50.0 mg/kg/injection, schedule: Q01DX009 (ip), vehicle: saline with Tween-80) was 0 of 6. For the same compound, the survivor count (dose: 50.0 mg/kg/injection, schedule: Q04DX003 (ip), vehicle: other) was 12 of 12.

For `O=C(O)c1cc2ccccc2cn1`, the survivor count (dose: 200.0 mg/kg/injection, schedule: Q01DX009 (ip), vehicle: saline) was 1 of 10.

`CCOC(=O)/C=C(\CBr)OC` was tested, and the survivor count [3] was 7 of 10.

In the case of `Cc1cc(=O)[nH]c2ccc(-c3ccc4[nH]c(=O)cc(C)c4c3)cc12`, the survivor count [6] is reported as 9 of 10.

`COc1cc(OC)c(/C=C/c2c3ccccc3cc[n+]2C)c(OC)c1` was tested, and the survivor count (dose: 3.13 mg/kg/injection, schedule: Q01DX009 (ip), vehicle: saline with Tween-80) was 10 of 10, the survivor count (dose: 6.25 mg/kg/injection, schedule: Q01DX009 (ip), vehicle: saline with Tween-80) was 0 of 10 and the survivor count [7] was 0 of 10. The survivor count [1] was 0 of 10, the survivor count (dose: 100.0 mg/kg/injection, schedule: Q01DX009 (ip), vehicle: saline with Tween-80) was 0 of 10 and the survivor count (dose: 200.0 mg/kg/injection, schedule: Q01DX009 (ip), vehicle: saline with Tween-80) was 0 of 10. The survivor count (dose: 400.0 mg/kg/injection, schedule: Q01DX009 (ip), vehicle: saline with Tween-80) was 0 of 10.

`CCCCNc1ccc(Nc2ccccc2)cc1` was tested, and the survivor count (dose: 100.0 mg/kg/injection, schedule: Q01DX009 (ip), vehicle: saline + alcohol) was 8 of 10.

With `O=C(O)C(O)C(O)C(=O)O.O=C(O)C(O)C(O)C(=O)O.[O]=[V].[O]=[V]` (stereo not given) the survivor count (dose: 50.0 mg/kg/injection, schedule: Q01DX009 (ip), vehicle: saline) was 7 of 10.

In the case of `O=C(CN1C(=O)c2ccccc2C1=O)OC(c1ccccc1)c1ccccc1`, the survivor count [5] is reported as 9 of 10.

With `CCc1ccccc1NC(=O)Nc1ccccc1` the survivor count [6] was 10 of 10.

For `C=C1C(=O)OC2/C=C(\C)CC/C=C(/C=O)C(OC(=O)C(C)C)C(O)C12` (stereo not given), the survivor count (dose: 8.0 mg/kg/injection, schedule: Q01DX009 (ip), vehicle: saline with Tween-80) was 5 of 6 and the survivor count (dose: 16.0 mg/kg/injection, schedule: Q01DX009 (ip), vehicle: saline with Tween-80) was 6 of 10 and 4 of 6.

`S=c1[nH]c2ccccc2[nH]1` was tested, and the survivor count [3] was 10 of 10, the survivor count [4] was 8 of 10 and the survivor count [5] was 4 of 10. For the same compound, the survivor count [6] was 0 of 10.

For `[CH3][Hg][O]C(C)=O`, the survivor count (dose: 12.5 mg/kg/injection, schedule: Q01DX009 (ip), vehicle: Klucel (hydroxypropylcellulose) (HPC)) was 7 of 10 and the survivor count [2] was 0 of 10.

With `CCC[CH2][Sn]1([CH2]CCC)[O]OC2(CCCCC2)[O]1` the survivor count (dose: 5.0 mg/kg/injection, schedule: Q01DX009 (ip), vehicle: saline with Tween-80) was 10 of 10 and the survivor count (dose: 10.0 mg/kg/injection, schedule: Q01DX009 (ip), vehicle: saline with Tween-80) was 2 of 10.

In the case of `C=CCN1CCC(C(=O)CC)(c2ccccc2)CC1`, the survivor count [4] is reported as 10 of 10, the survivor count [5] is reported as 0 of 10 and the survivor count [6] is reported as 0 of 10.

`COc1cccc2c1C(=O)c1c(O)c3c(c(O)c1C2=O)C[C@@](O)(C(C)O)C[C@@H]3OC1CC(N2CCC(OC)CC2)C(O)C(C)O1` (stereo not given in full) was tested, and the T/C (dose: 3.12 mg/kg/injection, schedule: Q01DX001 (ip), vehicle: water) was 131 % of control, the T/C (dose: 6.25 mg/kg/injection, schedule: Q01DX001 (ip), vehicle: water) was 146 % of control and the T/C (dose: 12.5 mg/kg/injection, schedule: Q01DX001 (ip), vehicle: water) was 132 % of control. The survivor count (dose: 50.0 mg/kg/injection, schedule: Q01DX001 (ip), vehicle: water) was 0 of 10.

For `OCCN1CCN(CCCN2c3ccccc3CCc3ccccc32)CC1`, the survivor count (dose: 125.0 mg/kg/injection, schedule: Q01DX009 (ip), vehicle: saline) was 3 of 10 and the survivor count (dose: 250.0 mg/kg/injection, schedule: Q01DX009 (ip), vehicle: saline) was 0 of 10.
